Test results reported in paper PMC10132990.
Results are given in words; binding and its absence hold for the method and conditions named. In cells and extracts the contact can be indirect. Here binding means that the protein was enriched with, or labelled near, the bait; the list need not be complete. Blank lines part the entries; values can stand above or below the molecule they belong to.

Chains of the proteins cited; added tags and fusions are not shown. Residues count along the entry.
UniProt Q4ACU6: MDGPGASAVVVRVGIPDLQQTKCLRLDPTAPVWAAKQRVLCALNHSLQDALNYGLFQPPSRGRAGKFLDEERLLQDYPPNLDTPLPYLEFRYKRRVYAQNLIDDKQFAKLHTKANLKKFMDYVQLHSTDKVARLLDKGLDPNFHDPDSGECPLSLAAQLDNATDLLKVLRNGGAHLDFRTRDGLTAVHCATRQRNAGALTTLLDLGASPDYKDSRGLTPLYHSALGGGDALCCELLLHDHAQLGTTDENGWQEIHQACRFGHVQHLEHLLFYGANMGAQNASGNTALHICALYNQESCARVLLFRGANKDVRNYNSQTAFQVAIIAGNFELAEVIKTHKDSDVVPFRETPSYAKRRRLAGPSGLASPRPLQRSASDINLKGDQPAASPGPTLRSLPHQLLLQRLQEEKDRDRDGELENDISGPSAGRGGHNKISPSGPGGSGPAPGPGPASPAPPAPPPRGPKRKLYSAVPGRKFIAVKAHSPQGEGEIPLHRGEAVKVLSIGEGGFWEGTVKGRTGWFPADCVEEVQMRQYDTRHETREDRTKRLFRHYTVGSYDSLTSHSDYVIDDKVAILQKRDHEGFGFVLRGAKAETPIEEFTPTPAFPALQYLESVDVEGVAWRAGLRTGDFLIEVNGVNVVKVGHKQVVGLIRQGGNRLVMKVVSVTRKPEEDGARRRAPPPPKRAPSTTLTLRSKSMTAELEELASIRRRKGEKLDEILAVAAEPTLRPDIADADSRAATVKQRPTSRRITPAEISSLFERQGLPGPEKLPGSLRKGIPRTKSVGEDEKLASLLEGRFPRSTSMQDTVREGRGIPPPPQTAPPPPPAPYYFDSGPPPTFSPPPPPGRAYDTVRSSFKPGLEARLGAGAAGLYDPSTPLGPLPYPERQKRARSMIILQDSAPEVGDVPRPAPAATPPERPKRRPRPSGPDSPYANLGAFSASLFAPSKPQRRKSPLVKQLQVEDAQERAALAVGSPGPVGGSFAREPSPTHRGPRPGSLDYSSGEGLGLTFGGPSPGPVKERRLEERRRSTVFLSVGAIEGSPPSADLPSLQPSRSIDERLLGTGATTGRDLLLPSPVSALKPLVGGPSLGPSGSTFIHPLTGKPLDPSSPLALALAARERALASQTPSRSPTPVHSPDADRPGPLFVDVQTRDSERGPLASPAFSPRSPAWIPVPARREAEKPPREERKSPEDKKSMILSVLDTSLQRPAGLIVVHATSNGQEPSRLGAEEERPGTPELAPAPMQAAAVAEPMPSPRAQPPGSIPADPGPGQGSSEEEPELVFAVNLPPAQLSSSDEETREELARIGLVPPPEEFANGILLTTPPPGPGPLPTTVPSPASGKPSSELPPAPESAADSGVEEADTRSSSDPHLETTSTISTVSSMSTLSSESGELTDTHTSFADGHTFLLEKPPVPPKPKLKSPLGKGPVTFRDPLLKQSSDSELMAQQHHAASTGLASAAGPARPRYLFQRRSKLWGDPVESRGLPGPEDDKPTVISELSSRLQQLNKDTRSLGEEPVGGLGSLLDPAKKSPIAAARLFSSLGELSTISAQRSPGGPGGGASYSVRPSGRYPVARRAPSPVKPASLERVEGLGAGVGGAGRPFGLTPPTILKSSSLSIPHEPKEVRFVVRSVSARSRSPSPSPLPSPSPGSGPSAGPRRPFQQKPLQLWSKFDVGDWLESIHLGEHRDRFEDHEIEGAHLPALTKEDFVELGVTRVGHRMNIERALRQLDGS
UniProt Q01097, residues 27-1482: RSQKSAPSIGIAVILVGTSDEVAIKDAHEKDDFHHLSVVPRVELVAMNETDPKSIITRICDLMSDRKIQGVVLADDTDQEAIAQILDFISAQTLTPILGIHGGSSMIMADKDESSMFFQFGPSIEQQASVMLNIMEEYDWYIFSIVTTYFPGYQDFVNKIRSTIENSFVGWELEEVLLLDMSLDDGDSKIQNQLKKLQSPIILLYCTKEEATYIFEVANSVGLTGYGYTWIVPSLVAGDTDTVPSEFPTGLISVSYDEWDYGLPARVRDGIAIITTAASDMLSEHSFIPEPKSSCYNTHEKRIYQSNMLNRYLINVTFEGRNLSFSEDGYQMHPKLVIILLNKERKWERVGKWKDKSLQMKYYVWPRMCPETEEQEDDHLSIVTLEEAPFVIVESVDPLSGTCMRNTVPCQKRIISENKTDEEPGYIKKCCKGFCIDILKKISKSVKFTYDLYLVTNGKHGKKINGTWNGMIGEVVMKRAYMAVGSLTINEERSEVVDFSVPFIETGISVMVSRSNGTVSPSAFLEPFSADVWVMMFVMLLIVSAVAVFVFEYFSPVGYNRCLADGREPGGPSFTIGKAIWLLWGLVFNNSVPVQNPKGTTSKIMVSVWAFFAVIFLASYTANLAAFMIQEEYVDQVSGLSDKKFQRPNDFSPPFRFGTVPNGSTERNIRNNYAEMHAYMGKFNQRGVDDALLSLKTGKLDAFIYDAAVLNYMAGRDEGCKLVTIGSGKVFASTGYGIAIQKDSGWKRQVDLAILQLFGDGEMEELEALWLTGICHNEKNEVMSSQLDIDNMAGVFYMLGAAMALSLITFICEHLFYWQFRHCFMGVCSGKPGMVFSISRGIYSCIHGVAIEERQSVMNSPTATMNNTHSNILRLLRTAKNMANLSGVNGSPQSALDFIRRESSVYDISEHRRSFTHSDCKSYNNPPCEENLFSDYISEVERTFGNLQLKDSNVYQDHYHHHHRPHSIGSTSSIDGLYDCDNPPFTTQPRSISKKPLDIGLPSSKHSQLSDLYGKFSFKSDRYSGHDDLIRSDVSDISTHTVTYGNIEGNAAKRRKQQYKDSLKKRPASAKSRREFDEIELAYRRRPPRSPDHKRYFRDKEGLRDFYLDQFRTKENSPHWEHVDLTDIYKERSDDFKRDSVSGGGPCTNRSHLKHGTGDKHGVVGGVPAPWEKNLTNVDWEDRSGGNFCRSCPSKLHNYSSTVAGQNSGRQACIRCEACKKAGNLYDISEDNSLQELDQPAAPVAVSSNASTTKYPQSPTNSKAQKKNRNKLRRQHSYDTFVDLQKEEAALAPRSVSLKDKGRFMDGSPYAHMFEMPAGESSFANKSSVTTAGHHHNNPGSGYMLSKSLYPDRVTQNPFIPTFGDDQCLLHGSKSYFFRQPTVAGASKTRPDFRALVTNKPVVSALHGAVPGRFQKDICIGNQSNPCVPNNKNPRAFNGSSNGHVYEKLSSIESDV

Experiments:
Neuro BioID2-SAPAP3 = biological target: T1, Neuro BioID2-SAPAP3 (UniProt Q6PFD5); experiment: proximity labelling; Neuro HA-BioID2-SAPAP3 in striatal neurons in vivo; biotin 24 mg/kg for 7 days; NeutrAvidin pull-down, LC-MS/MS; against GFP control; SAINTexpress FDR 0.05
T1 sequence: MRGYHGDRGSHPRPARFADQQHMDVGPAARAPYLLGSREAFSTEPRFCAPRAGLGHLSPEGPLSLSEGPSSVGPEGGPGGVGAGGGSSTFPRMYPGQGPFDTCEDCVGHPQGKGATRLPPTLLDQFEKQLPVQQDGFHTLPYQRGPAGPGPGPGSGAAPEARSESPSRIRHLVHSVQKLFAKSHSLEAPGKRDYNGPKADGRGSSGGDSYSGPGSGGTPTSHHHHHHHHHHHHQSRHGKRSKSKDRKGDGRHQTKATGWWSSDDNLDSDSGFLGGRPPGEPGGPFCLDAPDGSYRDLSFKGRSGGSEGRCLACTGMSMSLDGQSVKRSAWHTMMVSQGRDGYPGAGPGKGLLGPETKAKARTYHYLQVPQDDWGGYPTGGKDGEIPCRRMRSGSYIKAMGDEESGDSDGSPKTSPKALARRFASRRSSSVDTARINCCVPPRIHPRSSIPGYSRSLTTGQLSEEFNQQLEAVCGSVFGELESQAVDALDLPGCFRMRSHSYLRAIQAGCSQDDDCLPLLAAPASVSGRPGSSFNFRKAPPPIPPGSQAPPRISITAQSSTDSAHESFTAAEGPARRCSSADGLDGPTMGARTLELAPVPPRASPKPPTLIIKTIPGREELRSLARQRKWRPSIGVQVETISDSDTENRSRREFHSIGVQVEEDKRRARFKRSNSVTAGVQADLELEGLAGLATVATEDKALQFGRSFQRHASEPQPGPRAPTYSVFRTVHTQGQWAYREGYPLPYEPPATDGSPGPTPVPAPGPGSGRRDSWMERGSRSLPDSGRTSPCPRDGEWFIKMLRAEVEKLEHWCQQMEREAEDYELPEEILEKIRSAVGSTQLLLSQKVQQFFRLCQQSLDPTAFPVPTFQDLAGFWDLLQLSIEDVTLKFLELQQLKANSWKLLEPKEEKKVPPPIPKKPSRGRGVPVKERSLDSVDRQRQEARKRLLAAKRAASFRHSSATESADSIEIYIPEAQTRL

GLT1–BioID2 = GLT1–BioID2 (UniProt P43006); experiment: proximity labelling; subcompartment BioID2 fusions (AQP4, EZR, GLT1, KIR4.1, CX43) in striatal astrocytes in vivo; biotin 24 mg/kg for 7 days; NeutrAvidin pull-down, LC-MS/MS; log2(FC) > 1 and FDR < 0.05 versus the same protein fused to GFP
Astro BioID2-SAPAP3 = biological target: T2, Astro BioID2-SAPAP3 (UniProt Q6PFD5); experiment: proximity labelling; Astro HA-BioID2-SAPAP3 in striatal astrocytes in vivo; biotin 24 mg/kg for 7 days; NeutrAvidin pull-down, LC-MS/MS; against GFP control; SAINTexpress FDR 0.05
T2 sequence: T1 sequence

AQP4–BioID2, P55088 = biological target: T3, AQP4–BioID2, P55088; experiment: proximity labelling; subcompartment BioID2 fusions (AQP4, EZR, GLT1, KIR4.1, CX43) in striatal astrocytes in vivo; biotin 24 mg/kg for 7 days; NeutrAvidin pull-down, LC-MS/MS; log2(FC) > 1 and FDR < 0.05 versus the same protein fused to GFP; details: remark: other sources report otherwise
T3 chain: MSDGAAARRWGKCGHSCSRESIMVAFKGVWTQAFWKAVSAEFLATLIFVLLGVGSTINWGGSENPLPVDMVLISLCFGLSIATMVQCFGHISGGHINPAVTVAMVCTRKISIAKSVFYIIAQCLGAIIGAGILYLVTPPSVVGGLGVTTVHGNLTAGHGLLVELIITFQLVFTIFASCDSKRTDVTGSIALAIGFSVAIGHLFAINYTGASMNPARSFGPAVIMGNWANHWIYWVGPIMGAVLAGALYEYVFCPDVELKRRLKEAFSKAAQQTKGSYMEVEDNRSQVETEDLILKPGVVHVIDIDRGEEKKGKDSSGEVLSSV

binding (Neuro BioID2-SAPAP3): binds
Molecule: Shank3 (from UniProt Q4ACU6 1-1730)

binding (Neuro BioID2-SAPAP3): binds
Molecule: Syngap1 (from UniProt F6SEU4 1-1340)

binding (Neuro BioID2-SAPAP3): binds
Molecule: Grin2b (from UniProt Q01097 27-1482)

binding (GLT1–BioID2): binds
B1: hepatic and glial cell adhesion molecule (HepaCAM) (protein, UniProt Q640R3 34-418)
chain: VNITSPVRLIHGTVGKSALLSVQYSSTSSDKPVVKWQLKRDKPVTVVQSIGTEVIGTLRPDYRDRIRLFENGSLLLSDLQLADEGTYEVEISITDDTFTGEKTINLTVDVPISRPQVLVASTTVLELSEAFTLNCSHENGTKPSYTWLKDGKPLLNDSRMLLSPDQKVLTITRVLMEDDDLYSCVVENPISQVRSLPVKITVYRRSSLYIILSTGGIFLLVTLVTVCACWKPSKKSRKKRKLEKQNSLEYMDQNDDRLKSEADTLPRSGEQERKNPMALYILKDKDSSEPDENPATEPRSTTEPGPPGYSVSPPVPGRSPGLPIRSARRYPRSPARSPATGRTHTSPPRAPSSPGRSRSSSRSLRTAGVQRIREQDESGQVEISA

binding (Astro BioID2-SAPAP3): binds
B2: Slc1a3 (protein, UniProt P56564 1-543)
chain: MTKSNGEEPRMGGRMERLQQGVRKRTLLAKKKVQSLTKEDVKSYLFRNAFVLLTVTAVIVGTILGFALRPYKMSYREVKYFSFPGELLMRMLQMLVLPLIISSLVTGMAALDSKASGKMGMRAVVYYMTTTIIAVVIGIIIVIIIHPGKGTKENMYREGKIVQVTAADAFLDLIRNMFPPNLVEACFKQFKTSYEKRSFKVPIQSNETLLGAVINNVSEAMETLTRIREEMVPVPGSVNGVNALGLVVFSMCFGFVIGNMKEQGQALREFFDSLNEAIMRLVAVIMWYAPLGILFLIAGKIVEMEDMGVIGGQLAMYTVTVIVGLLIHAVIVLPLLYFLVTRKNPWVFIGGLLQALITALGTSSSSATLPITFKCLEENNGVDKRITRFVLPVGATINMDGTALYEALAAIFIAQVNNFDLNFGQIITISITATAASIGAAGIPQAGLVTMVIVLTSVGLPTDDITLIIAVDWFLDRLRTTTNVLGDSLGAGIVEHLSRHELKNRDVEMGNSVIEENEMKKPYQLIAQDNEPEKPVADSETKM

binding (Astro BioID2-SAPAP3): binds
B3: Slc4a4 (protein, UniProt O88343 1-1079)
chain: MEDEAVLDRGASFLKHVCDEEEVEGHHTIYIGVHVPKSYRRRRRHKRKAGHKEKKEKERISENYSDKSDVENADESSSSILKPLISPAAERIRFILGEEDDSPAPPQLFTELDELLAVDGQEMEWKETARWIKFEEKVEQGGERWSKPHVATLSLHSLFELRTCMEKGSIMLDREASSLPQLVEMIADHQIETGLLKPDLKDKVTYTLLRKHRHQTKKSNLRSLADIGKTVSSASRMFSNPDNGSPAMTHRNLTSSSLNDISDKPEKDQLKNKFMKKLPRDAEASNVLVGEVDFLDTPFIAFVRLQQAVMLGALTEVPVPTRFLFILLGPKGKAKSYHEIGRAIATLMSDEVFHDIAYKAKDRHDLIAGIDEFLDEVIVLPPGEWDPTIRIEPPKSLPSSDKRKNMYSGGENVQMNGDTPHDGGHGGGGHGDCEELQRTGRFCGGLIKDIKRKAPFFASDFYDALNIQALSAILFIYLATVTNAITFGGLLGDATDNMQGVLESFLGTAVSGAIFCLFAGQPLTILSSTGPVLVFERLLFNFSKDHNFDYLEFRLWIGLWSAFMCLVLVATDASFLVQYFTRFTEEGFSSLISFIFIYDAFKKMIKLADYYPINSDFKVGYNTHFSCACLPPDPVNLSVSNDTTLAPEDLPTISSTDMYHNVTFDWAYLSKKECVKYGGKLVGNNCDFVPDITLMSFILFLGTYTSSMAMKKFKTSRYFPTTARKLISDFAIILSILIFCVIDALVGVDTPKLIVPSEFKPTSPNRGWFVPPFGGNPWWVCLAAAIPALLVTILIFMDQQITAVIVNRKEHKLKKGAGYHLDLFWVAILMVVCSFMALPWYVAATVISIAHIDSLKMETETSAPGEQPKFLGVREQRVTGTLVFILTGLSVFMAPILKFIPMPVLYGVFLYMGVASLNGVQFMDRLKLLLMPLKHQPDFIYLRHVPLRRVHLFTFLQVLCLALLWILKSTVAAIIFPVMILALVAVRKGMDYLFSQHDLSFLDDVIPEKDKKKKEDEKKKKKKKGSLDSDNDDSDCPYSEKVPSIKIPMDIMEQQPFLSDNKPLDRERSSTFLERHTSC

binding (AQP4–BioID2, P55088): binds
B4: GLT1 (endogenous), P43006 1-572 (protein)
chain: MASTEGANNMPKQVEVRMHDSHLSSDEPKHRNLGMRMCDKLGKNLLLSLTVFGVILGAVCGGLLRLASPIHPDVVMLIAFPGDILMRMLKMLILPLIISSLITGLSGLDAKASGRLGTRAMVYYMSTTIIAAVLGVILVLAIHPGNPKLKKQLGPGKKNDEVSSLDAFLDLIRNLFPENLVQACFQQIQTVTKKVLVAPPSEEANTTKAVISMLNETMNEAPEETKIVIKKGLEFKDGMNVLGLIGFFIAFGIAMGKMGEQAKLMVEFFNILNEIVMKLVIMIMWYSPLGIACLICGKIIAIKDLEVVARQLGMYMITVIVGLIIHGGIFLPLIYFVVTRKNPFSFFAGIFQAWITALGTASSAGTLPVTFRCLEDNLGIDKRVTRFVLPVGATINMDGTALYEAVAAIFIAQMNGVILDGGQIVTVSLTATLASIGAASIPSAGLVTMLLILTAVGLPTEDISLLVAVDWLLDRMRTSVNVVGDSFGAGIVYHLSKSELDTIDSQHRMQEDIEMTKTQSIYDDKNHRESNSNQCVYAAHNSVVIDECKVTLAANGKSADCSVEEEPWKREK

binding (Astro BioID2-SAPAP3): binds
B5: Dstn (protein, UniProt Q9R0P5 1-165)
chain: MASGVQVADEVCRIFYDMKVRKCSTPEEIKKRKKAVIFCLSADKKCIVVEEGKEILVGDVGATITDPFKHFVGMLPEKDCRYALYDASFETKESRKEELMFFLWAPEQAPLKSKMIYASSKDAIKKKFPGIKHEYQANGPEDLNRTCIAEKLGGSLIVAFEGSPV

binding (Neuro BioID2-SAPAP3): binds
B6: Cnp (protein, UniProt P16330 1-420)
chain: MNTSFTRKSHTFLPKLFFRKMSSSGAKEKPELQFPFLQDEDTVATLHECKTLFILRGLPGSGKSTLARLILEKYHDGTKMVSADAYKIIPGSRADFSEAYKRLDEDLAGYCRRDIRVLVLDDTNHERERLDQLFEMADQYQYQVVLVEPKTAWRLDCAQLKEKNQWQLSADDLKKLKPGLEKDFLPLYFGWFLTKKSSETLRKAGQVFLEELGNHKAFKKELRHFISGDEPKEKLELVSYFGKRPPGVLHCTTKFCDYGKAAGAEEYAQQEVVKRSYGKAFKLSISALFVTPKTAGAQVVLTDQELQLWPSDLDKPSASEGLPPGSRAHVTLGCAADVQPVQTGLDLLDILQQVKGGSQGEAVGELPRGKLYSLGKGRWMLSLTKKMEVKAIFTGYYGKGKPVPIHGSRKGGAMQICTII

binding (Neuro BioID2-SAPAP3): binds
B7: Dlg3 (protein, UniProt P70175 1-849)
chain: MHKHQHCCKCPECYEVTRLAALRRLEPPGYGDWQVPDPYGPSGGNGASSGYGGYSSQTLPSQAGATPTPRTKAKLIPTGRDVGPVPPKPVPGKSTPKLNGSGPGWWPECTCTNRDWYEQASPAPLLVNPEALEPSLSVNGSDGMFKYEEIVLERGNSGLGFSIAGGIDNPHVPDDPGIFITKIIPGGAAAMDGRLGVNDCVLRVNEVDVSEVVHSRAVEALKEAGPVVRLVVRRRQPPPETIMEVNLLKGPKGLGFSIAGGIGNQHIPGDNSIYITKIIEGGAAQKDGRLQIGDRLLAVNNTNLQDVRHEEAVASLKNTSDMVYLKVAKPGSIHLNDMYAPPDYASTFTALADNHISHNSSLGYLGAVESKVTYPAPPQVPPTRYSPIPRHMLAEEDFTREPRKIILHKGSTGLGFNIVGGEDGEGIFVSFILAGGPADLSGELRRGDRILSVNGVNLRNATHEQAAAALKRAGQSVTIVAQYRPEEYSRFESKIHDLREQMMNSSMSSGSGSLRTSEKRSLYVRALFDYDRTRDSCLPSQGLSFSYGDILHVINASDDEWWQARLVTPHGESEQIGVIPSKKRVEKKERARLKTVKFHARTGMIESNRDFPGLSDDYYGAKNLKGVTSNTSDSESSSKGQEDAILSYEPVTRQEIHYARPVIILGPMKDRVNDDLISEFPHKFGSCVPHTTRPRRDNEVDGQDYHFVVSREQMEKDIQDNKFIEAGQFNDNLYGTSIQSVRAVAERGKHCILDVSGNAIKRLQQAQLYPIAIFIKPKSIEALMEMNRRQTYEQANKIFDKAMKLEQEFGEYFTAIVQGDSLEEIYNKIKQIIEDQSGHYIWVPSPEKL
